According to PMC10177590, “Canine Intestinal Organoids as a Novel In Vitro Model of Intestinal Drug Permeability: A Proof-of-Concept Study” (Cells, 2023):
Read-outs that look alike come from different tables or passages of the source.

Experiments:
[1] = tested on: P-gp; conditions: cited from earlier work
[2] = Bidirectional transport (Papp) across Caco-2 cell monolayers; format: in vitro ADME, human; conditions: human, Caco-2, pH 6.8, 2 mg/mL (7509 μM)
[3] = tested on: Caco-2 cell monolayers; assay: as above; format: in vitro ADME, human
[4] = tested on: canine-colonoid-derived monolayers; assay: Bidirectional transport (Papp) across canine-colonoid-derived monolayers; format: in vitro ADME, dog; conditions: for Papp × 10^−6: Dog colonoid
Method: After seven days of culture (Figure 3A), the 3D colonoids were harvested from the Matrigel® using the Corning™ cell recovery solution. Matrigel® plugs were dissociated by repeated pipetting after adding 500 μL of pre-chilled cell recovery solution into each well, and the plate was incubated for 30 min at 4 °C to dissolve the Matrigel®. The mixture was then transferred to a 15 mL tube and centrifuged at 100× g for 5 min at 4 °C. The organoid pellet was resuspended in 1 mL TrypLE Express and incubated at 37 °C for 10 min with shaking. To stop the TrypLE action, 6 mL of DMEM/F12 was added to the mixture before centrifugation at 100× g for 5 min at 4 °C. The supernatant was removed, and the pellet was resuspended with CMGF+ media. The harvested colonoid cell suspension was filtered through a sterile cell strainer (40 µm nylon mesh, Thermo Fisher Scientific) to obtain a single-cell suspension. The viability of dissociated cells was assessed by the trypan blue exclusion test, and cells were counted manually using a hemocytometer (Hausser Scientific, Horsham, PA, USA). The Transwell™ inserts were pre-coated with Matrigel® (100 μg/mL; Corning®) and rat tail collagen I (30 μg/mL; Fisher Scientific) to promote adhesion, growth, and differentiation in CMGF+ media at 37 °C for 1 h. Dissociated colonoid cells (Passages #15–20) were seeded at a density of 100,000 cells/cm^2 in pre-coated inserts and allowed to grow and differentiate in the presence of CMGF+ media for 10 to 12 days before the experiments (Figure 3B). The CMGF+ culture medium was changed every other day. The structural integrity of the cell monolayer was monitored every other day for up to two weeks by phase-contrast microscopy. Colonoid-derived monolayers and colonoids were fixed and processed for histology and/or TEM, as described in prior studies. All transport experiments were conducted at room temperature following the conditions outlined in earlier reports during sampling and incubation. The culture media were aspirated from both AP (0.2 mL) and BL (0.7 mL) chambers. For both the canine colonoid and the Caco-2 monolayer, the BL chambers with HBSS buffer at pH 7.4 (0.7 mL) and the AP chambers with appropriate HBSS buffer at pH 6.8 or 7.4 (0.2 mL) (canine) or pH 6.8 (0.2 mL) (Caco-2 cells) were rinsed and equilibrated at room temperature for 30 min. Two to three wells per drug/pH/direction were used for data generation. […] HBSS buffer with pH 7.4 was added to the BL chambers. […] For the AP side, drug concentrations of the donor solution were measured prior to introduction into the well and at the end of the study (120 min). In so doing, no buffer replacement was needed. All study samples were labeled and stored at −80 °C until further analysis. The same procedures described above for studying AP→BL permeability were followed when studying BL→AP, with the only difference being that the donor chamber was now the BL side and the receiver chamber was now the AP side. […] The collected samples were stored at −80 °C until further analysis by mass spectrometry (details below). […] The estimated concentrations in the receiver compartment were corrected for drug removed during prior samples. […] These Papp value estimates were further corrected for the percent recovery (Rec (%)) in each well [71, 72] as follows (Equation (3)): […]

For `CC(C)NCC(O)COc1ccc(CC(N)=O)cc1` (stereo not drawn) [Atenolol], the P-gp substrate status [1] is given as “substrate for P-gp”, the Papp A→B at 120 min, 2 mg/mL ([2]; Human Caco-2, AP→BL pH 6.8/7.4, N = 2, read-out: Papp × 10^−6 Avg) is given as 7.63 ×10⁻⁶ cm/s and the Papp A→B at 120 min, 2 mg/mL ([2]; Human Caco-2, AP→BL pH 6.8/7.4, individual wells, read-out: Papp × 10^−6) is given as 7.25 ×10⁻⁶ cm/s. For the same molecule, the “Papp × 10^−6” value ([3]; 0.2 mg/mL (750.9 μM), Human Caco-2, AP→BL pH 6.8/7.4, individual wells) was “BLQ”, the “Papp × 10^−6” value ([3]; 0.2 mg/mL (750.9 μM), Human Caco-2, BL→AP pH 7.4/7.4, individual wells) was “BLQ” and the “transport across the monolayer” value ([3]; 0.2 mg/mL, either direction, Caco-2 monolayer) was “not quantifiable”. The “Papp × 10^−6” value ([3]; 2 mg/mL (7509 μM), Human Caco-2, AP→BL pH 6.8/7.4, individual wells) was 8.01 × 10^−6 cm/s, the “Papp × 10^−6” value ([3]; 2 mg/mL (7509 μM), Human Caco-2, BL→AP pH 7.4/7.4, individual wells) was 4.97 × 10^−6 cm/s and the “Papp × 10^−6” value ([4]; 0.2 mg/mL (750.9 μM), AP→BL pH 6.8/7.4, individual wells) was “BLQ”. For the same molecule, the “Papp × 10^−6” value ([4]; 0.2 mg/mL (750.9 μM), AP→BL pH 7.4/7.4, individual wells) was “BLQ”, the “Papp × 10^−6” value ([4]; 0.2 mg/mL (750.9 μM), BL→AP pH 7.4/7.4, individual wells) was “BLQ” and the “transport across the monolayer” value ([4]; 0.2 mg/mL, either direction, canine colonoid) was “not quantifiable”. The “Papp × 10^−6” value ([4]; 2 mg/mL (7509 μM), AP→BL pH 6.8/7.4, individual wells) was “BLQ”, the “Papp × 10^−6” value ([4]; 2 mg/mL (7509 μM), AP→BL pH 7.4/7.4, individual wells) was “BLQ” and the “Papp × 10^−6” value ([4]; 2 mg/mL (7509 μM), BL→AP pH 7.4/7.4, individual wells) was “BLQ”.
